# Measurements: patent US20230016034A1, “ENHANCEMENT OF iPSC-DERIVED EFFECTOR IMMUNE CELL USING SMALL COMPOUNDS” (Fate Therapeutics, Inc., priority 2019, published 2023)
# For at least one compound, name, drawing or mass did not settle the structure.
# Columns and labels:
# Nalm6-luciferase cells = assay: In vivo efficacy of dexamethasone-treated post-thaw CD19-CAR iT cells, systemic Nalm6-luciferase model; set-up: species or system NSG female mice; conditions: compared to primary CAR-T cells
# From the text: Tumor progression was monitored at days 7, 14 and 20 post tumor injection by bioluminescent imaging. CAR-iT cells treated with dexamethasone (FIG. 8B) were compared with control cells without dexamethasone treatment (FIG. 8A) in cultures for iv/iv in vivo efficacy.
# [1] = test system: Nalm6 (CD19+) or Nalm6 CD19 knockout (19ko) cells; assay: Cytotoxicity assay with treated, cryopreserved CD19-CAR iNK cells rested overnight post-thaw; assay type: cell-based; conditions: 5 days treatment, thawed, FIG. 2B
smiles,measurement,setting,value
C[C@@H]1C[C@H]2[C@@H]3CCC4=CC(=O)C=C[C@]4(C)[C@@]3(F)[C@@H](O)C[C@]2(C)[C@@]1(O)C(=O)CO [dexamethasone],Survival rate,Nalm6-luciferase cells,prolonged survival rate when compared to primary CAR-T cells
same,EC50 = E:T ratio needed to achieve 50% specific cytotoxicity; functional recovery,[1],superior to rapamycin treatment
